Source: PubChem BioAssay AID624291 (National Center for Advancing Translational Sciences (NCATS), 2012)
The whole screen tested about 350,000 compounds, of which about 220 (0.063%) were called active. This list was built around the results that the source calls inconclusive (neither active nor inactive); the mix of calls is not that of the screen. Calls follow the shape of the dose curve; as a rule, active = well fitted activation curve with a large enough effect; inconclusive = small, poorly fitted or top-dose-only effect; inactive = no such curve, though single readings can be large or run the other way. Potencies beside an inconclusive call are fits to weak or partial responses and may not hold up.

Test: qHTS for Activators of Integrin-Mediated Alleviation for Muscular Dystrophy; also: nearly all actives have a fitted effect of over 60% in size;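 as to activation: 100% = response of the positive control SU9516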
Conditions: alpha7betagal myoblasts, beta-gal FDG fluorescence, 48 h; activation: at 38.3 µM (top of the series)
Method in brief: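 alpha7betagal+/- myoblasts (passage 13, 250/well) treated 48 h at 37C with compounds at 1:260 dilution of DMSO stock. Lysed, then beta-galactosidase activity read as FDG fluorescence (ex 480/em 540) after 30 min, with pre-read for autofluorescence.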
Potency is read from the fitted curve at half-maximal effect.

Row | Compound | Potency | activation
1 | COc1cnc(-c2ccccn2)nc1Oc1ccc(Cl)c2ccccc12 | inactive | –
2 | O=C(N/N=C/c1ccncc1)c1cccs1 | inactive | –
3 | CC1(C)NC(=O)N(CC(=O)O)C1=O | inconclusive: 0.501 µM [activator, partial curve, poor fit] | –
4 | COc1ccc(/C=C/c2cccc[n+]2C)c(O)c1 | inconclusive: 28.2 µM [activator, single point] | –
5 | CC(Oc1ccc(Br)cc1Br)C(=O)Nc1cccnc1 (configuration not stated) | inconclusive: 10 µM [activator, partial curve, poor fit] | –
6 | O=C(NCCc1ccccn1)C1CCN(S(=O)(=O)c2ccc(Cl)cc2)CC1 | inconclusive: 3.16 µM [activator, single point] | –
7 | COc1ccc(-c2cn3cc(C)ccc3n2)cc1Br | inconclusive: 3.55 µM [activator, partial curve, poor fit] | –
8 | CC(=O)N1CCCc2cc(S(=O)(=O)N3CCCC(C(=O)NCc4ccc(C)cc4)C3)ccc21 (configuration not stated) | inconclusive: 1.26 µM [activator, partial curve, poor fit] | –
9 | COc1ccc(CCNC(=O)CC2Nc3cc(C)c(C)cc3NC2=O)cc1OC (configuration not stated) | inactive | –
10 | COc1ccc(S(=O)(=O)N(C)C)cc1NC(=O)COC(=O)Cn1cnc2ccccc2c1=O | inconclusive: 3.98 µM [activator, full curve, poor fit] | –
11 | Cc1cc(NCc2ccco2)nc2cc(O)ccc12 | inconclusive: 5.01 µM [activator, single point] | –
12 | O=C(NCc1ccc(F)cc1)c1cc(S(=O)(=O)N2CCCCC2)ccc1Cl | inconclusive: 10 µM [activator, single point] | –
13 | Brc1ccc(-c2ccc(/C=N/Nc3nncc(-c4ccccc4)n3)o2)cc1 | inactive | –
14 | COc1ccc(-c2cc(C(=O)N/N=C/c3cc(OC)c(OC)cc3OC)c3ccccc3n2)cc1 | inactive | –
15 | O=C(CCn1cnnn1)N1CCCC(Nc2ccc(F)c(F)c2)C1 (configuration not stated) | inactive | –
16 | O=C(NCCCN1CCCC1=O)c1ccc(OC(F)(F)F)cc1 | inactive | –
17 | Cc1ccc(-c2nnc(NC(=O)C3=COCCO3)o2)c(C)c1 | inconclusive: 5.01 µM [activator, single point] | –
18 | Cc1ccsc1C(=O)NCC(C)(C)N1CCOCC1 | inconclusive: 3.55 µM [activator, partial curve, poor fit] | –
19 | Cc1ccc(NC(=O)C2C3C=CC4(O3)C2C(=O)N(CCCN2CCCC2)C4C(=O)NC2CCCCC2)cc1Cl (configuration not stated) | inactive | –
20 | O=C(O)C1CCCCC1C(=O)NCc1cn2ccccc2n1 (configuration not stated) | inactive | –
21 | CCN(C(=O)CSc1nc2cc(C(=O)O)ccc2c(=O)n1Cc1ccccc1)c1ccccc1 | inconclusive: 28.2 µM [activator, single point] | –
22 | CCCc1cc(=O)n2[nH]c(SCc3ccc(Cl)cc3)nc2n1 | inconclusive: 1 µM [activator, partial curve, poor fit] | –
23 | CC(C)CN(C(=O)CSc1nnc(-c2ccco2)o1)c1c(N)n(Cc2ccccc2)c(=O)[nH]c1=O | inconclusive: 5.01 µM [activator, single point] | –
24 | Clc1ccc(-c2cn3cc(Cl)ccc3n2)cc1 | inconclusive: 2.51 µM [activator, single point] | –

Row | Compound | Potency | activation
25 | COc1cccc(CN2CC(C(=O)NCc3cccc(N4CCCC4)c3)CCC2=O)c1 (configuration not stated) | inactive | –
26 | O=C(Cn1c(=O)sc2ccccc21)N1CCOCC1 | inconclusive: 28.2 µM [activator, single point] | –
27 | COc1ccc(C2CC(c3ccccc3)=NN2c2ccc(/C=N/NC(=O)c3ccncc3)cc2)cc1 (configuration not stated) | inactive | –
28 | COc1ccc(OC)c(-c2csc(N(C)C(=O)Cc3ccccc3)n2)c1 | inconclusive: 10 µM [activator, partial curve, poor fit] | –
29 | COc1ccccc1N1CC(C(=O)Nc2nnc(SC)s2)CC1=O (configuration not stated) | inconclusive: 7.94 µM [activator, partial curve, poor fit] | –
30 | CCOc1cc(C)c(C(C)C)cc1S(=O)(=O)n1cnc(C)c1 | inactive | –
31 | C/C(=N\NC(=S)NCCc1ccccc1)c1cccc(Br)c1 | inactive | –
32 | COc1ccccc1-n1cnnc1SCC(=O)c1c[nH]c2ccccc12 | inconclusive: 15.8 µM [activator, single point] | –
33 | CC(=O)N1c2ccc(S(=O)(=O)NCCc3ccc(S(N)(=O)=O)cc3)cc2CC1C (configuration not stated) | inactive | –
34 | CCc1nnc(NC(=O)C2CC(=O)N(Cc3ccccc3)C2)s1 (configuration not stated) | inconclusive: 12.6 µM [activator, partial curve, poor fit] | –
35 | CCC(C)Nc1nc2c(c(=O)[nH]c(=O)n2C)n1CCOc1ccccc1 (configuration not stated) | inconclusive: 7.94 µM [activator, partial curve, poor fit] | –
36 | Oc1ccccc1CNCc1ccccc1 | inconclusive: 5.01 µM [activator, single point] | –
37 | CC1CCCC(C)N1/N=C/c1ccc([N+](=O)[O-])cc1 (configuration not stated) | inconclusive: 2.24 µM [activator, full curve, poor fit] | –
38 | Cc1nc2ncnn2c(C)c1Cc1ccc(Cl)cc1F | inactive | –
39 | Cc1ccc(CN(C)C(=O)COC(=O)CSc2cc(C)c3ccccc3n2)cc1 | inconclusive: 1.78 µM [activator, partial curve, poor fit] | –
40 | CCOc1ccccc1NC(=O)c1ccc2c(c1)C(=O)N(CC)C2=O | inactive | –
41 | COC(=O)c1ccc(NC(=S)N2CCC(C(N)=O)CC2)cc1 | inactive | –
42 | CCCNC(=S)Nc1c(C)n(C)n(-c2ccccc2)c1=O | inconclusive: 5.01 µM [activator, single point] | –
43 | COc1ccc(Nc2cc3n(c(=O)n2)CCc2cc(OC)c(OC)cc2-3)cc1 | inactive | –
44 | CCC(c1nnc(SCC(=O)N2CCOCC2)n1C1CCCCC1)N(C)C (configuration not stated) | inconclusive: 3.16 µM [activator, single point] | –
45 | COc1ccc(NC(=O)CS(=O)c2ccc(Cl)c(Cl)c2)cc1 (configuration not stated) | inconclusive: 28.2 µM [activator, single point] | –
46 | O=C(NCCc1ccc(F)cc1)Nc1ccc([N+](=O)[O-])cc1 | inactive | –
47 | Cc1oc(-c2ccc(Cl)cc2)nc1CS(=O)CC(=O)NCc1ccccn1 (configuration not stated) | inconclusive: 2 µM [activator, full curve, poor fit] | –
48 | CCOC(=O)c1ccc(S(=O)(=O)N2CCC(C(=O)N3CCN(c4ccccc4OC)CC3)CC2)cc1 | – | inconclusive: -58.6% [activator]

3 structures from above, sorted by number of heavy atoms, descending:
Row | Compound | Potency | activation
47 | Cc1oc(-c2ccc(Cl)cc2)nc1CS(=O)CC(=O)NCc1ccccn1 (configuration not stated) | inconclusive: 2 µM [activator, full curve, poor fit] | –
38 | Cc1nc2ncnn2c(C)c1Cc1ccc(Cl)cc1F | inactive | –
37 | CC1CCCC(C)N1/N=C/c1ccc([N+](=O)[O-])cc1 (configuration not stated) | inconclusive: 2.24 µM [activator, full curve, poor fit] | –

(listing goes on)

Row | Compound | Potency | activation
49 | CCCCC(NS(=O)(=O)c1ccc(C)cc1)C(=O)Oc1ccc2c3c(c(=O)oc2c1)CCC3 (configuration not stated) | inconclusive: 31.6 µM [activator, partial curve, poor fit] | –
50 | COc1ccc2c(=O)cc(C(=O)O)oc2c1 | inactive | –
51 | CCN(CC(=O)Nc1c(F)cccc1F)C(=O)CNC(=O)C1CCCCC1 | inactive | –
52 | CC(/C=C1\SC(=S)N(CCC(=O)Nc2cccc(C(=O)O)c2)C1=O)=C\c1ccccc1 | inconclusive: 12.6 µM [activator, single point] | –
53 | CCOC(=O)N1CCC(NC(=O)Cc2ccccc2)CC1 | inconclusive: 2 µM [activator, single point] | –
54 | O=C(Nc1ccc(Cl)c(Cl)c1)NC1CCS(=O)(=O)C1 (configuration not stated) | inconclusive: 14.1 µM [activator, single point] | –
55 | CCOC(=O)c1c(S(=O)(=O)Nc2ccccc2OCC)c(C)n(C)c1C | inconclusive: 22.4 µM [activator, single point] | –
56 | COc1ccc(NC(=O)C(OC(=O)c2cnccn2)c2ccccc2)cc1Cl (configuration not stated) | inconclusive: 28.2 µM [activator, single point] | –
57 | O=c1oc2cc([N+](=O)[O-])ccc2nc1/C=C(\O)c1cccc(Br)c1 | inactive | –
58 | N#C/C(=C\c1cccs1)C(=O)Nc1ccccn1 | inactive | –
59 | N/C(=N\OC(=O)Nc1cccc(C(F)(F)F)c1)c1ccno1 | inconclusive: 2.51 µM [activator, partial curve, poor fit] | –
60 | CN1CCN(S(=O)(=O)c2cccc(C(=O)Nc3sccc3C(N)=O)c2)CC1 | inconclusive: 28.2 µM [activator, single point] | –
61 | NC(=S)NN=Cc1nccc2ccccc12 | inactive | –
62 | O=C(N/N=C/c1ccc2c(c1)OCO2)c1ccc(NC(=O)c2ccc(F)cc2)cc1 | inconclusive: 2.82 µM [activator, single point] | –
63 | CCOc1ccc(N2C(=O)C3ON(c4ccccc4)C(c4ccco4)C3C2=O)cc1 (configuration not stated) | inconclusive: 5.01 µM [activator, full curve, poor fit] | –
64 | O=C1N[C@H](Cc2ccccc2)CO1 | inactive | –
65 | Cc1ccc(C)c(-c2ccc(=O)n(Cc3c(F)cccc3Cl)n2)c1 | inconclusive: 28.2 µM [activator, single point] | –
66 | CCN(C(=O)COC(=O)c1nc(Cl)ccc1Cl)c1c(N)n(Cc2ccccc2)c(=O)[nH]c1=O | inconclusive: 28.2 µM [activator, single point] | –
67 | CC(=O)N1c2ccc(S(=O)(=O)NCCC(=O)Nc3ncccc3C)cc2CC1C (configuration not stated) | inconclusive: 5.01 µM [activator, single point] | –
68 | COc1ccccc1P(=O)(Cc1ccccc1)c1ccccc1 (configuration not stated) | inactive | –
69 | Clc1ccc(OCCCCCN2CCOCC2)cc1 | inactive | –
70 | CC(C)c1nnc(NC(=O)C2CCCN2C(=O)Nc2ccc(F)cc2)s1 (configuration not stated) | inconclusive: 3.16 µM [activator, single point] | –
71 | O=[N+]([O-])c1ccc(N=Nc2c(Cl)cc(O)cc2Cl)cc1 | inactive | –
72 | O=C(N/N=C/c1ccccc1O)C(=O)Nc1ccccn1 | inconclusive: 3.16 µM [activator, full curve, poor fit] | –
